{"source": "PubChem BioAssay AID1259308 | NCATS – 2017", "purpose": "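Genes whose loss raises luciferase production in HEK293 cells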 (primary screen)", "system": "human HEK293 embryonic kidney cells stably expressing firefly luciferase (HEK-CMV-Luc2-Hygro)", "reagents": "single siRNA against human genes, 0.8 pmol siRNA per well", "duration": "72 h", "read-out": "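Luciferase light (ONE-Glo) measured on one replicate plate set and viability (CellTiter-Glo) on the other, scaled to a negative control siRNA, with robust z-scores and luciferase per cell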", "direction": "total luciferase, z-score: higher = more reporter protein produced", "call rule": "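Active when the median/MAD z-score for overall luciferase is greater than 3; a gene was taken forward for validation with new siRNAs if at least two of its three siRNAs passed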", "meaning of the calls": "active = raised luciferase; inactive = no rise", "note": "Here is one part, drawn at random, of about 59,000 reagents. About 1,510 of all reagents (2.6%) were called active. 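Calls use total luciferase alone and ignore viability, so some active siRNAs may act by altering cell number.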 Entries without a mark were called inactive. Reagents against one gene are numbered here. Not all columns of the deposit are shown. Reagent sequences are not shown."}
{"gene": "SDSL (GeneID 113675)", "reagent no.": 1, "total luciferase, z-score": -0.709}
{"gene": "SDSL (GeneID 113675)", "reagent no.": 2, "total luciferase, z-score": -0.3}
{"gene": "SDSL (GeneID 113675)", "reagent no.": 3, "total luciferase, z-score": -2.15}
{"gene": "MICOS13 (GeneID 125988)", "reagent no.": 1, "total luciferase, z-score": 0.584}
{"gene": "MICOS13 (GeneID 125988)", "reagent no.": 2, "total luciferase, z-score": 0.184}
{"gene": "MICOS13 (GeneID 125988)", "reagent no.": 3, "total luciferase, z-score": 0.274}
{"gene": "RASGRP2 (GeneID 10235)", "reagent no.": 1, "total luciferase, z-score": 0.222}
{"gene": "RASGRP2 (GeneID 10235)", "reagent no.": 2, "total luciferase, z-score": -0.115}
{"gene": "RASGRP2 (GeneID 10235)", "reagent no.": 3, "total luciferase, z-score": 0.912}
{"gene": "C1QTNF8 (GeneID 390664)", "reagent no.": 1, "total luciferase, z-score": 0.855}
{"gene": "C1QTNF8 (GeneID 390664)", "reagent no.": 2, "total luciferase, z-score": -1.08}
{"gene": "C1QTNF8 (GeneID 390664)", "reagent no.": 3, "total luciferase, z-score": -0.836}
{"gene": "GARIN5A (GeneID 112703)", "reagent no.": 1, "total luciferase, z-score": -1.03}
{"gene": "GARIN5A (GeneID 112703)", "reagent no.": 2, "total luciferase, z-score": 0.824}
{"gene": "GARIN5A (GeneID 112703)", "reagent no.": 3, "total luciferase, z-score": 1.28}
{"gene": "SLC30A4 (GeneID 7782)", "reagent no.": 1, "total luciferase, z-score": 0.00141}
{"gene": "SLC30A4 (GeneID 7782)", "reagent no.": 2, "total luciferase, z-score": -0.144}
{"gene": "SLC30A4 (GeneID 7782)", "reagent no.": 3, "total luciferase, z-score": -1.29}
{"gene": "ATP10A (GeneID 57194)", "reagent no.": 1, "total luciferase, z-score": 1.61}
{"gene": "ATP10A (GeneID 57194)", "reagent no.": 2, "total luciferase, z-score": 0.0192}
{"gene": "ATP10A (GeneID 57194)", "reagent no.": 3, "total luciferase, z-score": -0.836}
{"gene": "TMX1 (GeneID 81542)", "reagent no.": 1, "total luciferase, z-score": 0.605}
{"gene": "TMX1 (GeneID 81542)", "reagent no.": 2, "total luciferase, z-score": 0.609}
{"gene": "TMX1 (GeneID 81542)", "reagent no.": 3, "total luciferase, z-score": 0.706}
{"gene": "MAGEB16 (GeneID 139604)", "reagent no.": 1, "total luciferase, z-score": 0.417}
{"gene": "MAGEB16 (GeneID 139604)", "reagent no.": 2, "total luciferase, z-score": 0.203}
{"gene": "MAGEB16 (GeneID 139604)", "reagent no.": 3, "total luciferase, z-score": -1.58}
{"gene": "IFT122 (GeneID 55764)", "reagent no.": 1, "total luciferase, z-score": 0.917}
{"gene": "IFT122 (GeneID 55764)", "reagent no.": 2, "total luciferase, z-score": 0.546}
{"gene": "IFT122 (GeneID 55764)", "reagent no.": 3, "total luciferase, z-score": 2.63}
{"gene": "FMO3 (GeneID 2328)", "reagent no.": 1, "total luciferase, z-score": -1.37}
{"gene": "FMO3 (GeneID 2328)", "reagent no.": 2, "total luciferase, z-score": 0.38}
{"gene": "FMO3 (GeneID 2328)", "reagent no.": 3, "total luciferase, z-score": 1.27}
